Drawing on paper PMC10488256, this text covers binding for one molecule.

Results are given in words; binding and its absence hold for the method and conditions named. Binding seen in cells or lysates may run through a third protein. Some binding calls cover weakened binding; strength is not graded here. Where a sequence is shown, tags or fusion partners need not be part of it.

The target in the test is epidermal growth factor receptor (EGFR), Flag-tagged (UniProt P00533). The experiment in a line: co-IP; 293FT cells co-expressing the two tagged proteins (methods: HEK293 cells transiently transfected); lysed in IP-RIPA buffer on ice; lysates incubated with antibody-carrying beads for 4 h; washed; Western blot.

B1: zinc finger DHHC-type containing 13 (ZDHHC13) protein with HA tag (enzyme, UniProt Q8IUH4 1-622)
chain: MEGPGLGSQCRNHSHGPHPPGFGRYGICAHENKELANAREALPLIEDSSNCDIVKATQYGIFERCKELVEAGYDVRQPDKENVSLLHWAAINNRLDLVKFYISKGAVVDQLGGDLNSTPLHWAIRQGHLPMVILLLQHGADPTLIDGEGFSSIHLAVLFQHMPIIAYLISKGQSVNMTDVNGQTPLMLSAHKVIGPEPTGFLLKFNPSLNVVDKIHQNTPLHWAVAAGNVNAVDKLLEAGSSLDIQNVKGETPLDMALQNKNQLIIHMLKTEAKMRANQKFRLWRWLQKCELFLLLMLSVITMWAIGYILDFNSDSWLLKGCLLVTLFFLTSLFPRFLVGYKNLVYLPTAFLLSSVFWIFMTWFILFFPDLAGAPFYFSFIFSIVAFLYFFYKTWATDPGFTKASEEEKKVNIITLAETGSLDFRTFCTSCLIRKPLRSLHCHVCNCCVARYDQHCLWTGRCIGFGNHHYYIFFLFFLSMVCGWIIYGSFIYLSSHCATTFKEDGLWTYLNQIVACSPWVLYILMLATFHFSWSTFLLLNQLFQIAFLGLTSHERISLQKQSKHMKQTLSLRKTPYNLGFMQNLADFFQCGCFGLVKPCVVDWTSQYTMVFHPAREKVLRSV
For B1, the binding entry was “binds”.
